Results are given in words; binding and its absence hold for the method and conditions named. Binding seen in cells or lysates may run through a third protein. Some binding calls cover weakened binding; strength is not graded here.
Experiments:
[1] = biological target: T1, fructose-1,6-bisphosphatase 1 (FBP1), endogenous (human (endogenous in MIA PaCa-2 and Capan-1)) (UniProt P09467); assay: co-IP; endogenous proteins of MIA PaCa-2 and Capan-1 cells, RIPA lysis; IP with FBP1 and DNMT1 antibodies, or with FBP1 and USP7 antibodies, respectively
T1 sequence: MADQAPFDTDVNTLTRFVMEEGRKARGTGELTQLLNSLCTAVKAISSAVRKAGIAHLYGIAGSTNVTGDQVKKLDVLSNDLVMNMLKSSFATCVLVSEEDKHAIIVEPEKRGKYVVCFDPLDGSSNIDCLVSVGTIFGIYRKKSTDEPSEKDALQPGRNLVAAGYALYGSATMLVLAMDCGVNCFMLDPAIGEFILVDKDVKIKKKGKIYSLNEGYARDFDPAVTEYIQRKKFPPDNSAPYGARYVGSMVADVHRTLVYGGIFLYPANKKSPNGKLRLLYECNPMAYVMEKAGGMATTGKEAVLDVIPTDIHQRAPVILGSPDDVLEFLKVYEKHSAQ

Sequences of proteins named here, by UniProt entry; tags and fusion partners are left off.
UniProt P26358: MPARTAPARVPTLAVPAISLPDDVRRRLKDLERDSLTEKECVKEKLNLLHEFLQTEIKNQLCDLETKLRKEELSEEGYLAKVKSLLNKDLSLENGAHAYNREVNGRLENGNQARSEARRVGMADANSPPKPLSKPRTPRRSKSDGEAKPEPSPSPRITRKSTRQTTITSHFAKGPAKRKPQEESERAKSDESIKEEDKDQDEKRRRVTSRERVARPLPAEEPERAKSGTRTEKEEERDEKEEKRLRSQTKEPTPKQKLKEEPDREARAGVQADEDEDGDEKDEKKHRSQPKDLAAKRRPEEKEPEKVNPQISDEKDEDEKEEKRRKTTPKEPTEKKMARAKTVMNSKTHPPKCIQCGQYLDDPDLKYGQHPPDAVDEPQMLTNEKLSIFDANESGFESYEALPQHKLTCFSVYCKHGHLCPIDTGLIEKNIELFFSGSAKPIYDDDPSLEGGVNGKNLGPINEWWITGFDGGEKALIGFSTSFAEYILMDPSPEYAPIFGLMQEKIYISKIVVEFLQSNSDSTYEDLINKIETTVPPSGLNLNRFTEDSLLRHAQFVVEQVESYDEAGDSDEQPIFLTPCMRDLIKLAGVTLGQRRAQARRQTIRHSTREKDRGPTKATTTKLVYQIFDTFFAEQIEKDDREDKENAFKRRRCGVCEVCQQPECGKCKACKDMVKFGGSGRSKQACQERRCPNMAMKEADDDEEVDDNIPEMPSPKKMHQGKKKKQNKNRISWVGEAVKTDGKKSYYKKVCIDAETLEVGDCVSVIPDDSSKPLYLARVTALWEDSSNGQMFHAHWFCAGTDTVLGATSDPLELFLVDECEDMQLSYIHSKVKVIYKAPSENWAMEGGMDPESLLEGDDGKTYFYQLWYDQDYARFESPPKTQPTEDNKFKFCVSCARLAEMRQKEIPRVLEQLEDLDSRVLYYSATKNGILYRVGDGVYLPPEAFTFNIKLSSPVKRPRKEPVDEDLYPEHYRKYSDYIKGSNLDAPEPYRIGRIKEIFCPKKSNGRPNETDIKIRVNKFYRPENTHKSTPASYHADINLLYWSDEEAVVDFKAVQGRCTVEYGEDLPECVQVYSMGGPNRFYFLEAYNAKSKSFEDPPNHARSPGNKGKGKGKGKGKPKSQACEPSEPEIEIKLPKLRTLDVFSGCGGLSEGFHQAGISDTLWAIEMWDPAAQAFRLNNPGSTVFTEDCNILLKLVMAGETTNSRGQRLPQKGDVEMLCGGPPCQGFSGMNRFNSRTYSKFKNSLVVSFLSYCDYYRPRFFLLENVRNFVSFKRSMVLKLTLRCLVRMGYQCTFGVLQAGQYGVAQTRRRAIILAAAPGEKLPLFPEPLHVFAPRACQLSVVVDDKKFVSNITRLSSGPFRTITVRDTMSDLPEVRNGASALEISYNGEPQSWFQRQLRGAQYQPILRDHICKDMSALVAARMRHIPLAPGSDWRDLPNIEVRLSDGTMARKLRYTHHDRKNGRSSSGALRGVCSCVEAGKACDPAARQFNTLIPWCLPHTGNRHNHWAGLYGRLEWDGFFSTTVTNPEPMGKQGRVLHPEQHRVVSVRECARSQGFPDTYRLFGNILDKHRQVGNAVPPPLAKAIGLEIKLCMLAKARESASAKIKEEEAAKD
UniProt Q93009: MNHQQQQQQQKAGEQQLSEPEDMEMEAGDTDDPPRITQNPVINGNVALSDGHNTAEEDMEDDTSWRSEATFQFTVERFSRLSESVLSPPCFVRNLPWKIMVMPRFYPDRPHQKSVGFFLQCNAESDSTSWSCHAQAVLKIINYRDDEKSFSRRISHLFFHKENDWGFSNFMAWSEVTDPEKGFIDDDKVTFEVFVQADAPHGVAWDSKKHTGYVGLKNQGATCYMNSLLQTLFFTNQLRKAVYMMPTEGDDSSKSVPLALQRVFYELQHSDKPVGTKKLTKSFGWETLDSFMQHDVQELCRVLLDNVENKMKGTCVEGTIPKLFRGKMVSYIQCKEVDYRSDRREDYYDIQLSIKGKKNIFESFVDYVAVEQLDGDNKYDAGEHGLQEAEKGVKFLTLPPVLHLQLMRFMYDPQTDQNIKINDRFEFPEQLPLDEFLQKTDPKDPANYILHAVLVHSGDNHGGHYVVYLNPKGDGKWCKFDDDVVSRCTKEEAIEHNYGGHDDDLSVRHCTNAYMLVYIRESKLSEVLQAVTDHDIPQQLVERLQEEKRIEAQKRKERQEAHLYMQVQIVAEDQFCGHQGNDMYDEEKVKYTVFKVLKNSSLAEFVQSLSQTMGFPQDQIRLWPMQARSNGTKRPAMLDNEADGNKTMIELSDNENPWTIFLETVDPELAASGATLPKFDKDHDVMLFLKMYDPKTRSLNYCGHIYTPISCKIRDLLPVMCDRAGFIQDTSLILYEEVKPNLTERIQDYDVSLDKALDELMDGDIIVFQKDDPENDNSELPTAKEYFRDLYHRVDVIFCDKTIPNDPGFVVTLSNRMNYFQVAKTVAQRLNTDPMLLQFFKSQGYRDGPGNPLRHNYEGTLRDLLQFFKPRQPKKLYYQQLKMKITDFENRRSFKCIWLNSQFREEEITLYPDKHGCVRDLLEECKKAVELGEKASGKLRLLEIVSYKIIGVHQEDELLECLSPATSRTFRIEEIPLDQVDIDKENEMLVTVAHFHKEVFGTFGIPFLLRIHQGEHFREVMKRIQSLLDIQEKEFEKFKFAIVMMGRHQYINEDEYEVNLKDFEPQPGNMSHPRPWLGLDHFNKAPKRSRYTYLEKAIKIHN
UniProt P09874: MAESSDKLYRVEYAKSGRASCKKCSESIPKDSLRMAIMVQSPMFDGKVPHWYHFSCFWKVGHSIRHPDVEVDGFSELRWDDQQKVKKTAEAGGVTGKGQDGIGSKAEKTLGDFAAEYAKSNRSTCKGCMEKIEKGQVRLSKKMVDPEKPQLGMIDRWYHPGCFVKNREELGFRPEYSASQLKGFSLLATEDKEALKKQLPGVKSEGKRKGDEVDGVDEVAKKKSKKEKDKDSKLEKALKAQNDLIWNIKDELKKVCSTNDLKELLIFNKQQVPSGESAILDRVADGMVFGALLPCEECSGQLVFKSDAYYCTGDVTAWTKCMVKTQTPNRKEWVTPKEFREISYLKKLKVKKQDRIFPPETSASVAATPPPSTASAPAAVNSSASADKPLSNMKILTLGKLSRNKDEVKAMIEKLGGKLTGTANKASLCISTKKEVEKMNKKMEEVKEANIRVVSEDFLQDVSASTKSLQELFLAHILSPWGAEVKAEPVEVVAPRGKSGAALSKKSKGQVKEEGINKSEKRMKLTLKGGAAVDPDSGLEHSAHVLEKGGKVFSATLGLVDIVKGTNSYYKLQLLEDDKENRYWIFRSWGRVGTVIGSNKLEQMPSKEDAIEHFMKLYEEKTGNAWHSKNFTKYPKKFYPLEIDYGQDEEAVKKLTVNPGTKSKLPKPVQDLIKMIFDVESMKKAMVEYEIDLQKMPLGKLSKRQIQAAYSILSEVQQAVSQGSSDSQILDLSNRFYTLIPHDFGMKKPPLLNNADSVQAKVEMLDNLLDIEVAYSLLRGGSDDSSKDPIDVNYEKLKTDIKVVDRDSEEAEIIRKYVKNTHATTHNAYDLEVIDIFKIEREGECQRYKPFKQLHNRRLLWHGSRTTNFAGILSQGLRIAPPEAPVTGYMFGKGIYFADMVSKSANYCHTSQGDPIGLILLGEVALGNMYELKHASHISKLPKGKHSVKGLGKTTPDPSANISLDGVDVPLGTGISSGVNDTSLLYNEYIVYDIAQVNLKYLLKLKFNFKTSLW

[2] = biological target: DNA (cytosine-5)-methyltransferase 1 (DNMT1), endogenous (human (endogenous in MIA PaCa-2 and Capan-1)) (UniProt P26358); assay: co-IP; endogenous proteins of Capan-1 cells, IP with DNMT1 antibodies; cells with shFBP1, with overexpressed FBP1 WT, G260R or NES, with USP7 inhibitor (10 uM, 24 h) or with shUSP7

binding [1] | binding [2] | Substance
binds |  | ubiquitin carboxyl-terminal hydrolase 7 (USP7), endogenous (from UniProt Q93009 1-1102) (enzyme)
 | binds | Poly[ADP-ribose] polymerase 1 (PARP1), endogenous (from UniProt P09874 1-1014) (enzyme)
